Measurements reported in publication PMC3418561.
Results are given in words; binding and its absence hold for the method and conditions named. In cells and extracts the contact can be indirect. Some results given as binding are weak or reduced against the parent protein; the word gives no strength.

By UniProt entry, the sequences of proteins in these tests, tags left out.
UniProt Q62689: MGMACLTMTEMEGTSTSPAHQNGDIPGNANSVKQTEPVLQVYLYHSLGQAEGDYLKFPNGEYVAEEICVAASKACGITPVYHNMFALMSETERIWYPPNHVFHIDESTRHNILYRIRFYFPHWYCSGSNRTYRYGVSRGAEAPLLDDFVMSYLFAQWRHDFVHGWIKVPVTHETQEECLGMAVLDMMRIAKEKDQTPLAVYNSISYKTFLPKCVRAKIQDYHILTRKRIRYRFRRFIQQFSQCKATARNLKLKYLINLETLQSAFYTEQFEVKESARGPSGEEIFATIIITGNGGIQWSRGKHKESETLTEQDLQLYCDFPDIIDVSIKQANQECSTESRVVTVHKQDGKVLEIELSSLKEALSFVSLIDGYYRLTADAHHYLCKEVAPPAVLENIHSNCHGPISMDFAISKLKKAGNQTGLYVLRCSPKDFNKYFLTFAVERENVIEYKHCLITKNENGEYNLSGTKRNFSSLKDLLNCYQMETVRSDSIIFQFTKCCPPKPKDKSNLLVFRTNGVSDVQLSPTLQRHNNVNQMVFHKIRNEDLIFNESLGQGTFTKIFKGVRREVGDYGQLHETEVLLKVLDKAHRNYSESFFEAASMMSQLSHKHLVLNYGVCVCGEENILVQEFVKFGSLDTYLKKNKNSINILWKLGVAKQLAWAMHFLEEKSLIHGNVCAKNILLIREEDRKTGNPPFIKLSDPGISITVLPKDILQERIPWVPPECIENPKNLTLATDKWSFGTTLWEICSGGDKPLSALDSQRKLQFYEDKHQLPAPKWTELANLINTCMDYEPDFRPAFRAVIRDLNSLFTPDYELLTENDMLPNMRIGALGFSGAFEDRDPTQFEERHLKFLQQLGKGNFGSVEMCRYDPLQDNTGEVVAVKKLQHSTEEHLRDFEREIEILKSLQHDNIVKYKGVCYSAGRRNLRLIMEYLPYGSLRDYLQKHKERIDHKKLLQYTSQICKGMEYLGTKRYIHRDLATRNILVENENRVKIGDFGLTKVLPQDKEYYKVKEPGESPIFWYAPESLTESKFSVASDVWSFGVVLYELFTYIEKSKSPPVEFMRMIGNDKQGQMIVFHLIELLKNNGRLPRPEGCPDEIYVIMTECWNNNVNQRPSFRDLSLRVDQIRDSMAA

Biological target: T1, TNFα receptor (TNFR1) (rat (endogenous in primary mixed glia of Wistar rats)) (UniProt P22934)
T1 sequence: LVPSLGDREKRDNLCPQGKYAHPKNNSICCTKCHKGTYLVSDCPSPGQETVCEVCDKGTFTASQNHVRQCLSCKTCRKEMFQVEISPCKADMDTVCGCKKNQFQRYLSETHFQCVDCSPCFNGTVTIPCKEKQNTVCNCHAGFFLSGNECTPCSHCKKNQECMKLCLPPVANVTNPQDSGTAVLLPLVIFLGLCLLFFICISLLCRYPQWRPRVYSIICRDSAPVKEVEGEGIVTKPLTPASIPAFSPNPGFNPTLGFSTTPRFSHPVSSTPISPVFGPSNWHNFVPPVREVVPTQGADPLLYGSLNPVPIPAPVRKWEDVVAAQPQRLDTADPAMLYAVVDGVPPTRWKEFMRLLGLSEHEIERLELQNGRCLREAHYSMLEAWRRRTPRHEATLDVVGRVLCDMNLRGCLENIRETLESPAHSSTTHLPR
Assay: co-IP; TNFR1 immunoprecipitated with an anti-TNFR1 antibody from lysates of rat mixed glia treated with TNFα (5 ng/ml) for 0, 5 or 10 minutes; western blot with a phospho-JAK2 specific antibody

binding: binds
Substance: phosphorylated JAK2 (Janus kinase 2) (from UniProt Q62689 1-1132) (enzyme)
